# In patent US20050013939A1, “Boron-based wood preservatives and treatment of wood with boron-based preservatives” (priority 2001, published 2005):
# How the values were obtained:
# [1] = Examples 2 and 3: dipping of radiata pine in pure trimethyl borate, retention and spot-test penetration
# [2] = Example 5: emission and dissipation of TMB and methanol in desiccator after momentary immersion; parameters: species or system radiata pine
# [3] = Example 4: dipping 30 seconds in different solution temperatures of TMB; parameters: species or system radiata pine
# [4] = Example 6: penetration of TMB in radiata pine treated by Lowry process or by dipping; settings: for Boric acid equivalent % / Penetration % / Net uptake / Gross uptake: MC 10-12%
# [5] = Example 1: dipping of messmate in pure trimethyl borate, retention and spot-test penetration; parameters: species or system Eucalyptus Obliqua
# [6] = wood samples at 12% moisture content
# [7] = Dipping 30 seconds, pure TMB 100%
# [8] = LP, 1.25% TMB (vol/vol) in kerosene
# [9] = LP, 2.50% TMB (vol/vol) in kerosene
# [10] = LP, 5.00% TMB (vol/vol) in kerosene
smiles,measurement,setting,value
"COB(OC)OC [TMB, trimethyl borate]",Mean charge retention,[1]; 2 second immersion,8.3 kg/m3 TMB
same,spot-testing of preservative penetration,[1]; 2 second immersion,total penetration of the cross-section
same,spot-testing of preservative penetration,"[1]; 30 seconds dip, sealed in polythene envelope, within 2 hours",substantial penetration
same,chemical penetration,"[1]; Example 3, no envelope",Total chemical penetration
same,loss of chemical by surface hydrolysis and evaporation,"[1]; Example 3, no envelope",substantial loss of chemical
same,mean charge retention of TMB,"[1]; radiata pine 6% moisture content, 30 seconds dip",13.4 kg/m3
same,changes in the volume of the samples,[2]; 12% moisture content,1.03%
same,mean retention of boric acid,"[2]; 12% moisture content, 8 days after treatment",1.69 % wt/wt
same,TMB concentration in the desiccator environment,[2]; 5 minutes after treatment,426 ppm
same,TMB concentration in the desiccator environment,[2]; 22 hours after treatment,20 ppm
same,TMB concentration in the desiccator environment,[2]; after 9 days,5 ppm
same,mean depth of penetration,[2]; [6],8.67 mm
same,mean percentage TMB penetration,[2]; [6],51%
same,Average Chemical Uptake,[3]; solution temperature 5 °C,19.16 Kg/m3
same,Average Chemical Uptake,[3]; solution temperature 20 °C,14.738 Kg/m3
same,Average Chemical Uptake,[3]; solution temperature −10 °C,24.122 Kg/m3
same,Boric acid equivalent %,[4]; [7],1.15%
same,Penetration %,[4]; [7],46%
same,Net uptake,"[4]; Dipping 30 seconds, pure TMB 100%, 5 days in polyester bag",6.04 l/m^3
same,Boric acid equivalent %,[4]; [8],0.13%
same,Gross uptake,[4]; [8],87 l/m^3
same,Net uptake,[4]; [8],39 l/m^3
same,Penetration %,[4]; [8],95%
same,Boric acid equivalent %,[4]; [9],0.21%
same,Gross uptake,[4]; [9],76 l/m^3
same,Net uptake,[4]; [9],33 l/m^3
same,Penetration %,[4]; [9],80%
same,Boric acid equivalent %,[4]; [10],0.53%
same,Gross uptake,[4]; [10],92 l/m^3
same,Net uptake,[4]; [10],40 l/m^3
same,Penetration %,[4]; [10],85%
same,penetration of sapwood samples,"[4]; treated by LP, all cases",over 90%
same,uptake,"[5]; matched messmate, dipping for 1 minute",3.6 kg/m3
same,Preservative retention (kgs TMB),"[5]; messmate 6% moisture content, dipping with initial vacuum -65 kPa 5 minutes",approximately 4.8 kg/m3
same,depth of penetration (spot-testing),"[5]; messmate 6% moisture content, vacuum dipping, 24 hours in polythene envelope",8 mm
